± gives the standard deviation. This is a selection; strong and weak results do not stand in their true shares. Many entries were measured with a wide error.
What follows are sequences tested on MIWI (PIWIL1) piRISC loaded with piRNA #2 (30 nt) (assay: pre-steady-state target cleavage rate (min^-1); MIWI and MILI are mouse PIWI proteins and EfPiwi is from a freshwater sponge; tags in brackets are library labels; higher = faster piRNA-guided slicing of the target). Details: guide: piRNA #2 5'p-UUAGGUAACCCAGUAGAUCCAGAGGAAUUC; auxiliary factor: 500 nM mouse GTSF1.
Description: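 Cleave-'n-Seq: a library of target RNAs (target site embedded in constant flanks, ACAGCATTCCGCGTTAGTGATATCCG... 5' flank; DNA-blocked outside the site) at 0.1 nM was incubated with 1 nM active mouse MILI or MIWI piRISC (synthetic 5'-monophosphorylated piRNA guide) with or without 500 nM mouse GTSF1 at 33 °C for 1 min to 16 h. Uncleaved targets were sequenced and normalised to non-target controls, and the pooled three trials were fitted to a burst-and-steady-state model to give the pre-steady-state cleavage rate (min^-1; k3 is constrained to at most 1e-4). Sequence is the target site only; target names encode pairing extent (gX:gY) and contiguous / 1-mismatch / 2-mismatch / bulge geometry. Fits with R² ≤ 0 are excluded.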

Sequence	pre-steady-state target cleavage rate
CUUAAGGAGUGGAUCUUACUGGGUUACCUAA	0.000234 ± 0.021
CUUAAGGAGACGUUCUACUGGGUUACCUUA	0.000888 ± 0.0069
CUUAAGGAGAGGAUCUACUGGAGUUACCUAA	0.00169 ± 0.0084
CUUAAGGAGACGAUCUAGUGGCUUACCUAA	0.000127 ± 0.024
CUUAAGGAGACCUAGUACUGGGUUACCUAG [g2:g15:cont:t1G]	0.00118 ± 0.0084
CUUAAGGAGACCAUCUACCUGGGUUACCUAA	0.00225 ± 0.0038
CUUAAGGAGACGUUCUACUGGGUUACCUAA	0.00134 ± 0.0058
CUUUUCCUCUGGAUCUAGACGGUUACCUAA	0.000724 ± 0.012
CUUAAGGACUGGUUCUACUGGGUUUCCUAA	0.007 ± 0.011
CUUAAGGAGACCUUCUACUGGCAAACCUAA	0.000684 ± 0.015
CUUAAGGAGAGGACUCUACUGGGUUACCUAA	0.00138 ± 0.011
CUUAAGGAGACCUUCUACUGGAGUUACCUAA	0.00256 ± 0.0067
CUUAAGGAGACCAUCUACUGGGUUAGCUAA	0.00126 ± 0.004
CAAUUCCUCUCGGAUCUACUGGGUUACCUAA	0.506 ± 0.065
CUUAAGGAGUGCAUCUACUGGCUUACCUAA	0.000521 ± 0.016
CUAUUCCUCUCGAUCUACUCGGUUACCUAA	0.196 ± 0.017
CUUAAGGACUGUAUCUACUGGGUUACCUAA	0.00763 ± 0.017
CUUAAGGAGACCUAGUUACUGGGUUACCUAA	0.00113 ± 0.006
CUUAAGGAGACGUUCUAGUGGGUUACCUAA	0.000284 ± 0.022
CUUAAGGAGAGGAUCUACUCGGUUACCUUA	0.000165 ± 0.044
CUUAAGGAGACCUACUCACUGGGUUACCUAA	0.00136 ± 0.0066
CUUAAGGAGACGAUCUACUCGGUUACCUUA	0.000528 ± 0.014
CUAUUCCUCUGGAUACUACUGGGUUACCUAA	0.422 ± 0.056
CUUAAGGAGACCAUCUCUGGGUUACCUAA	0.00213 ± 0.006

Sequence	pre-steady-state target cleavage rate
GAAUUCCUCUGGAUCUUCUGGGAUACCUAA	0.108 ± 0.018
CUUAAGGAGACGCAUCUACUGGGUUACCUAA	0.00158 ± 0.0051
CUUAAGCUCUGGAUCUACUGCGGUUACCUAA	0.000174 ± 0.027
CUUAAGGAGACCUAGAAUGGGUUACCUAA	0.000624 ± 0.014
CUUAAGGAGUGGAGUCUACUGGGUUACCUAA	0.00527 ± 0.0059
CUUAAGGAGACGAUCUACAGGGUUACCUUA	0.00188 ± 0.0071
CAAUUCCUCUGGAUCUAUCUGGGUUACCUAA	0.00387 ± 0.0041
CUAUUCCUCUCCAUCUACUGGGUUACCUAA	0.647 ± 0.051
CUUAACCUCUGGAUCAACUCGGUUACCUAA	0.0679 ± 0.013
CUUAAGGAGUGGAUCUACUGGGUUCCUAA	0.00101 ± 0.0083
CUUAAGGAGUGGAUCUACUGGGUACCUAA	0.000194 ± 0.022
CUUAACCUCUGGAUGUUCUGGGUUACCUAA	0.244 ± 0.019
CUUAAGGAGACCUUCUACCGGGUUACCUAA	0.00321 ± 0.0042
CUUAUCCUCUGGAUCUACUGUGGUUACCUAA	0.00103 ± 0.01
CUUAAGGAGUGGAUCUACUGGGUAACCUUA	0.00262 ± 0.0066
CUUAAGGAGACCUUCUACGGGUUACCUAA	0.00139 ± 0.0059
CUUAAGGAGACCAUCUACUGCCUUACCUAA	0.00137 ± 0.0045
CUUAAGGAGACCUAGAACUGGGUUACCUUA	0.000423 ± 0.0089
CUUAAGGAGUCGAUCUACUGGGUUACCAAA	0.000232 ± 0.037
CUUAAGGAGUGGAUCUACUGGGAUUCCUAA	0.00101 ± 0.0095
CUUAAGGACUGGAUGUACUGGGUAACCUAA	0.00256 ± 0.014
CUUAAGGAGACCAUCUGCUGGGUUACCUAA	0.00263 ± 0.0034
CUUAAGGAGACCUAGUACUGGGUUACCAUAA	0.00115 ± 0.013
CAAUUCCUCUGGAUCUGACUGGGUUACCUAA	0.00176 ± 0.0059

As entered above:
pre-steady-state target cleavage rate with CUUAUCCUCUGGAUCUACUGUGGUUACCUAA is entered as 0.00103 ± 0.01
pre-steady-state target cleavage rate with CUUAACCUCUGGAUCAACUCGGUUACCUAA is entered as 0.0679 ± 0.013
pre-steady-state target cleavage rate with CUUAAGGACUGGUUCUACUGGGUUUCCUAA is entered as 0.007 ± 0.011
pre-steady-state target cleavage rate with CUUAAGGAGACGAUCUACUCGGUUACCUUA is entered as 0.000528 ± 0.014
pre-steady-state target cleavage rate with CUUAAGGAGACCAUCUACUGCCUUACCUAA is entered as 0.00137 ± 0.0045

Continued.

Sequence	pre-steady-state target cleavage rate
CUUAAGGAGACCAUCUACUGGGUUACGAUA	0.000215 ± 0.017
CUUAACCUCUGGAUCUACUGGCAAACCUAA	0.00179 ± 0.0058
CUUAAGGAGACCUACCUACUGGGUUACCUAA	0.00174 ± 0.0083
CUUAAGGUCUGGAUCUACUGCGGUUACCUAA	0.000228 ± 0.016
CUUAACCUCUGGAUCUUCUGGGUUUCCUAA	0.042 ± 0.0092
CUAUUCCUCUGGAUCUACUAGGGUUACCUAA	0.00272 ± 0.0049
CUUAAGGAGUGGAUCUACUGGGCUUACCUAA	0.00121 ± 0.016
CUAUUCCUCUCGAUCAACUGGGUUACCUAA	0.637 ± 0.047
CUUAACCUCUGGUUCUACUGCGUUACCUAA	0.754 ± 0.077
CUUAAGGACUGGAUCUAGUGGGUAACCUAA	0.00329 ± 0.01
CUUAAGGAGACAAUCUACUGGGUUACCUAA	0.003 ± 0.0043
CUUAAGGAGACCUUCUACUGGGUUACGAUA	0.000669 ± 0.0099
CUUAAGGAGACCUAGCACUGGGUUACCUAA	0.00117 ± 0.007
CUUAAGGAGACCAUCAUGUGGGUUACCUAA	0.00064 ± 0.016
CUUAAGGAGAGGAUCUACAGGGUAACCUAA	0.000448 ± 0.019
CUUUUCCUCUGCAUCUACUGCGUUACCUAA	0.49 ± 0.037
CUUAAGGAGAGGAACUACUCGGUUACCUAA	0.000276 ± 0.021
CUUAAGGUCUGGAACUACUGGGUAACCUAA	0.0271 ± 0.028
CUUAAGGAGAGGAUCUACAGGGAUACCUAA	0.00063 ± 0.02
CUUAAGGAGACCUUCUACACCGUUACCUAA	0.00352 ± 0.0035
CUUAAGGAGACCUAGAACUGGGUAUCCUAA	0.000242 ± 0.022
CUUAAGGAGUGGAACUACUGGGUAACCUAA	0.000859 ± 0.019
CUUAAGGAGUGGAUCUAGAGGGUUACCUAA	0.00083 ± 0.011
CUUAAGGAGACCUACUACUGGGUUACCUCA	0.000855 ± 0.01
